The other results are listed elsewhere or left out. These are further read-outs of the screen, such as a control signal, another cell line or another target. No call is given for them. Compounds called inactive in the main read-out are mostly missing here. The note in brackets gives the kind of curve behind each potency; many fits are weak.
Test: IkB Signaling
Settings: ABC-DLBCL IkBa-CBG/CBR dual luciferase ratio (green luciferase fused to IkBa over red control in OCI-Ly3 lymphoma cells), 4 h
Summary of the method: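 In this assay, an IκBα–CBG68 fusion accumulates when IKK-driven degradation is blocked; native CBR normalizes for cell number. OCI-Ly3 cells were treated 4 h with compound and doxycycline, then green and red light read after Chroma-Glo addition.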

[1] = measured here: control luc red channel unless noted
[2] = measured here: IkB-luc green channel
[3] = measured here: control luc red channel

For CCC1CCCCN1S(=O)(=O)c1ccc2c(c1)CCN2C(=O)C1CCC1 (centres undefined), the AC50 [1] was 20 µM [falling, single point].
In the case of COc1ccccc1N1CCN(c2ncc3c(n2)CCN(Cc2ccc(C)s2)C3)CC1, the AC50 [1] is reported as 31.6 µM [falling, single point].
In the case of O=C(Nc1nc(-c2ccccn2)cs1)c1ccc(S(=O)(=O)N2CCCCC2)cc1, the AC50 [1] is reported as 10 µM [falling, partial curve].
With CCn1c(=O)c2sccc2n2c(CCCC(=O)N3CCN(c4cc(C)ccc4C)CC3)nnc12 the AC50 [1] was 12.6 µM [falling, partial curve].
With Cc1ccn2c(=O)c(C(=O)NCCc3ccc(S(N)(=O)=O)cc3)c(O)nc2c1 the AC50 [1] was 0.1 µM [rising, partial curve, poor fit].
For Cc1[nH]c2ccc(C(=O)OCCN(C)C)cc2c1C, the AC50 [1] was 100 nM [falling, partial curve, poor fit] [measured here: IkB-luc green channel].
With COc1ccc(N2C(=O)CSC23C(=O)N(CC(=O)NCc2ccccc2)c2ccccc23)cc1 (centres undefined) the AC50 [1] was 0.251 µM [falling, full curve, poor fit].
In the case of O=c1oc(-c2ccco2)nc2c1cnn2-c1ccccc1, the AC50 [2] is reported as 3.16 µM [falling, partial curve] and the AC50 [3] is reported as 15.8 µM [falling, partial curve].
With COc1cccc(NC(=O)C2CC(=O)N(C)C(=Nc3cccc(F)c3)S2)c1 (centres undefined) the AC50 [1] was 25.1 µM [falling, partial curve].
With CS(=O)(=O)NCCc1csc2nc(-c3ccccc3)nn12 the AC50 [1] was 3.98 µM [rising, single point].
With COc1cccc(NC(=O)N(Cc2cn(C)c3ccccc23)C2CCCCC2)c1 the AC50 [1] was 7.94 µM [falling, full curve].
With Cc1ccc(C)c(N2CCN(C(=O)c3ccc(CS(=O)(=O)c4ccccc4C)o3)CC2)c1 the AC50 [1] was 7.94 µM [falling, partial curve].
For CCOc1ccc(NC(=O)Cn2c(=O)n(Cc3ccccc3)c(=O)c3sc4ccccc4c32)cc1, the AC50 [1] was 3.16 µM [rising, single point].
For C=C(C)COc1ccc(-c2n[nH]c(C)c2Oc2ccccc2OC)c(O)c1, the AC50 [1] was 25.1 µM [falling, single point].
In the case of Cc1cc(C)cc(NC(=O)CN2C(=O)CSc3ccc(S(=O)(=O)N4CCCC4)cc32)c1, the AC50 [1] is reported as 25.1 µM [falling, single point].
In the case of CCOc1ccc(NC(=O)c2c(NC(=O)c3cccc(C)c3)sc3c2CCC3)cc1, the AC50 [1] is reported as 12.6 µM [falling, partial curve].
For O=C(NCC1CCN(Cc2cccc(F)c2)CC1)c1cc2ccc3cccnc3c2[nH]1, the AC50 [1] was 15.8 µM [falling, partial curve].
With COc1ccccc1N1CCN(S(=O)(=O)CCNC(=O)COc2ccc(F)cc2)CC1 the AC50 [1] was 10 µM [falling, partial curve].
For CCc1ccc(NC(=O)CC2C(=O)N(c3ccc(OC)cc3)C(=O)N2Cc2ccc(OC)cc2)cc1 (centres undefined), the AC50 [1] was 31.6 µM [falling, single point].
In the case of Cc1cc(Nc2ccccc2)n(-c2nc3ccccc3[nH]2)n1, the AC50 [1] is reported as 15.8 µM [falling, partial curve].
In the case of Cc1csc2nc(CSc3nc4ccccc4o3)c(Br)n12, the AC50 [1] is reported as 39.8 µM [falling, single point].
In the case of COc1ccc(CCNc2ncnc3c2c(-c2ccccc2)cn3-c2cccc(Cl)c2)cc1OC, the AC50 [1] is reported as 12.6 µM [falling, partial curve].
In the case of COC(=O)c1sccc1NC(=O)c1ccncc1, the AC50 [1] is reported as 12.6 µM [rising, partial curve].
In the case of CCOc1ccc(CNC(=O)CCn2c(=O)c3cccn3c3cccnc32)cc1, the AC50 [1] is reported as 1 µM [rising, full curve].
For O=C(CSc1nc(=O)n(Cc2ccco2)c2c1CCC2)NCc1ccccc1Cl, the AC50 [1] was 25.1 µM [falling, single point].
For CCOC(=O)/C=C(\C)Sc1cc(=O)oc2ccccc12, the AC50 [1] was 7.94 µM [falling, partial curve].
For O=C(C1CCCN(S(=O)(=O)c2ccc(Br)s2)C1)N1CCCCCC1 (centres undefined), the AC50 [1] was 10 µM [falling, partial curve].
In the case of COc1ccccc1CNC(=O)CCCn1nc(C)c2c(C)n(-c3ccc(C)cc3)nc2c1=O, the AC50 [1] is reported as 12.6 µM [falling, partial curve].
With COC(=O)c1c(SC)nc2ccccc2c1OCc1ccc(C)cc1C the AC50 [1] was 3.98 µM [falling, full curve, poor fit].
For O=C(CSc1nnc2scc(-c3ccc(Cl)cc3)n12)Nc1ccccc1F, the AC50 [1] was 3.16 µM [falling, partial curve].
For Cc1ccc2onc(CC(=O)Nc3cc(F)ccc3F)c2c1, the AC50 [1] was 39.8 µM [falling, single point].
In the case of COc1ccc(C(=O)Nc2ccc3c(c2)N(C2CCCC2)C(=O)c2ccccc2S3)cc1OC, the AC50 [1] is reported as 12.6 µM [falling, partial curve].
In the case of CC(CNC(=O)c1ccc(CSc2nc3ccncc3n2Cc2cccc(F)c2)cc1)c1ccccc1 (centres undefined), the AC50 [1] is reported as 25.1 µM [falling, partial curve].
With Cc1ccc(C)c(-c2nn(CC(=O)Nc3cc(F)ccc3F)c(=O)c3c2CCCC3)c1 the AC50 [1] was 15.8 µM [falling, partial curve].
With COc1cc(C(=O)Nc2ccc(Cl)c(-c3nc4ncccc4o3)c2)cc(OC)c1OC the AC50 [1] was 15.8 µM [falling, partial curve, poor fit].
In the case of O=C(Cn1cc(S(=O)(=O)N2CCN(c3ccccc3F)CC2)c2ccccc2c1=O)Nc1cccc(C(F)(F)F)c1, the AC50 [1] is reported as 3.98 µM [falling, partial curve].
With Cc1cccc2c1-c1sc(C(=O)N3CCN(c4ccc(F)cc4)CC3)cc1CO2 the AC50 [1] was 31.6 µM [falling, single point].
With COc1ccccc1CNC(=O)CSc1nc(-c2ccc(OC)c(OC)c2)cc(C(F)(F)F)n1 the AC50 [1] was 25.1 µM [falling, single point].
With O=C(NCC(c1cccs1)S(=O)(=O)c1cccs1)c1ccc(F)c(F)c1 (centres undefined) the AC50 [1] was 39.8 µM [falling, single point].
With COc1ccc(C(=O)Nc2nnc(-c3ccccc3)o2)cc1OC the AC50 [2] was 39.8 µM [rising, single point] and the AC50 [3] was 20 µM [falling, partial curve].
In the case of C[C@@H](C(=O)O)c1ccc(C[C@@H]2CCCC2=O)cc1, the AC50 [1] is reported as 1 µM [rising, full curve, poor fit] [measured here: IkB-luc green channel].
For COC(=O)c1sccc1S(=O)(=O)N(CC(=O)Nc1cc(C)ccc1C)c1ccc(C)c(C)c1, the AC50 [1] was 10 µM [falling, partial curve].
In the case of CCC(C)NC(=O)c1ccc2c(c1)sc1nc(-c3ccc(OC)cc3)cn12 (centres undefined), the AC50 [1] is reported as 15.8 µM [falling, partial curve].
In the case of O=C(CSc1nc2c([nH]c3ccccc32)c(=O)n1-c1cccc(Cl)c1)N1CCCC1, the AC50 [1] is reported as 0.794 µM [rising, full curve].
For COC(=O)C1=C(C)NC(C)=C(C(=O)OCCSc2ccccc2)[C@@H]1C, the AC50 [1] was 31.6 µM [falling, partial curve].
With CCn1c(SCC(=O)Nc2nc(-c3ccccc3)cs2)nnc1-c1ccccc1O the AC50 [2] was 15.8 µM [falling, partial curve, poor fit] and the AC50 [3] was 12.6 µM [falling, partial curve].
For FC(F)(F)c1cc(-c2ccc3c(c2)OCO3)nc(NCc2ccco2)n1, the AC50 [2] was 1.26 µM [rising, full curve] and the AC50 [3] was 7.94 µM [falling, full curve].
For Cc1ccc(N2CCN(S(=O)(=O)c3nnc(NC(=O)c4ccccc4)s3)CC2)cc1, the AC50 [1] was 2 µM [rising, partial curve].
For Nc1ccccc1-c1nnc(SCc2ccccc2F)[nH]c1=O, the AC50 [1] was 12.6 µM [falling, partial curve].
With Cc1ccccc1Cn1nc(C)c(NC(=O)c2noc3c2CCc2ccccc2-3)c1C the AC50 [1] was 10 µM [falling, partial curve].
In the case of CCCCNc1nc2c(S(=O)(=O)c3ccc(C)cc3)nnn2c2ccsc12, the AC50 [1] is reported as 0.0631 µM [rising, full curve].
In the case of COc1ccc2[nH]c(=O)c(CN(C3CCCCC3)C(c3nnnn3Cc3ccco3)C(C)C)cc2c1 (centres undefined), the AC50 [1] is reported as 6.31 µM [rising, full curve] [measured here: IkB-luc green channel].
With O=C(Nc1ccccc1C(=O)OCc1cc(=O)n2nc(C3CC3)sc2n1)c1ccc(Cl)cc1 the AC50 [1] was 0.251 µM [falling, full curve].
In the case of Cc1ccc(C)c(N2CCN(c3nc4ccc(C)cc4nc3-n3nc(C)cc3C)CC2)c1, the AC50 [1] is reported as 39.8 µM [falling, single point].
With CCOCCc1nnc(NC(=O)C(=O)c2cc(C)n(-c3ccc(C)c(C)c3)c2C)s1 the AC50 [1] was 12.6 µM [falling, partial curve].
With Cc1ccc(NC(=O)c2cccc3c(=O)c4c([nH]c23)CCCC4)c(C)c1 the AC50 [1] was 39.8 µM [falling, single point].
With O=C(Nc1ccc2c(c1)OCO2)[C@@H]1[C@@H]2C(=O)N(C3CCCCC3)C(=O)[C@@H]2C2c3ccccc3C=CN21 (some centres undefined) the AC50 [1] was 10 µM [falling, partial curve].
With CCOC(=O)c1sc2ccccc2c1S(=O)(=O)Nc1ccc(OC)c(Cl)c1 the AC50 [1] was 31.6 µM [falling, single point].
In the case of CCOc1ccc(NC(=O)Nc2nnc(N3CCCCC3C)s2)cc1 (centres undefined), the AC50 [1] is reported as 31.6 µM [falling, single point].
With Cc1ccc(NC(=O)Nc2nnc(SCC(=O)N(C(C)C)C(C)C)s2)cc1 the AC50 [1] was 25.1 µM [falling, partial curve].
